Reference: doi:10.1101/2024.01.22.576669
Results are given in words; binding and its absence hold for the method and conditions named. In cells and extracts the contact can be indirect. A yes stands for co-enrichment or nearness to the bait. Other partners may have been found.

Molecular target: T1, POU2AF1 (human (endogenous in MM.1S)) (UniProt Q16633)
T1 sequence: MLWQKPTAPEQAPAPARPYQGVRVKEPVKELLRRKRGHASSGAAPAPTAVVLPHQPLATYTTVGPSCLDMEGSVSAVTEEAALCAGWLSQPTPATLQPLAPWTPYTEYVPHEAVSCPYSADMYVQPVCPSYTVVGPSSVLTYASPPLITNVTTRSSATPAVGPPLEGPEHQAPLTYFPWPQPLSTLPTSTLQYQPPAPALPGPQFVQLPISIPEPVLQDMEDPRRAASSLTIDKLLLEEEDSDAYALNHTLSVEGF
Experiment: affinity purification with mass spectrometry; RIME of POU2AF1 in MM.1S cells: 40 x 10^6 cells cross-linked 8 min in 1% formaldehyde, nuclear lysates sonicated to 200-600 bp chromatin fragments, immunoprecipitation with 20 ug antibody pre-bound to beads overnight at 4 °C, TMT labelling, LC-MS/MS

binding: binds
B1: IRF4 (protein, UniProt Q15306 1-451)
chain: MNLEGGGRGGEFGMSAVSCGNGKLRQWLIDQIDSGKYPGLVWENEEKSIFRIPWKHAGKQDYNREEDAALFKAWALFKGKFREGIDKPDPPTWKTRLRCALNKSNDFEELVERSQLDISDPYKVYRIVPEGAKKGAKQLTLEDPQMSMSHPYTMTTPYPSLPAQQVHNYMMPPLDRSWRDYVPDQPHPEIPYQCPMTFGPRGHHWQGPACENGCQVTGTFYACAPPESQAPGVPTEPSIRSAEALAFSDCRLHICLYYREILVKELTTSSPEGCRISHGHTYDASNLDQVLFPYPEDNGQRKNIEKLLSHLERGVVLWMAPDGLYAKRLCQSRIYWDGPLALCNDRPNKLERDQTCKLFDTQQFLSELQAFAHHGRSLPRFQVTLCFGEEFPDPQRQRKLITAHVEPLLARQLYYFAQQNSGHFLRGYDLPEHISNPEDYHRSIRHSSIQE
